Test results as given in patent publication US20110136232A1 (MAYO FOUNDATION FOR MEDICAL EDUCATION AND RESEARCH, published 2011).
These are yes or no findings as the source states them, for the method shown. In cells and extracts the contact can be indirect. Some binding calls cover weakened binding; strength is not graded here. For part of these data: Where a sequence is shown, tags or fusion partners need not be part of it.

Sequences of proteins named here, by UniProt entry; tags and fusion partners are left off.
UniProt Q14289: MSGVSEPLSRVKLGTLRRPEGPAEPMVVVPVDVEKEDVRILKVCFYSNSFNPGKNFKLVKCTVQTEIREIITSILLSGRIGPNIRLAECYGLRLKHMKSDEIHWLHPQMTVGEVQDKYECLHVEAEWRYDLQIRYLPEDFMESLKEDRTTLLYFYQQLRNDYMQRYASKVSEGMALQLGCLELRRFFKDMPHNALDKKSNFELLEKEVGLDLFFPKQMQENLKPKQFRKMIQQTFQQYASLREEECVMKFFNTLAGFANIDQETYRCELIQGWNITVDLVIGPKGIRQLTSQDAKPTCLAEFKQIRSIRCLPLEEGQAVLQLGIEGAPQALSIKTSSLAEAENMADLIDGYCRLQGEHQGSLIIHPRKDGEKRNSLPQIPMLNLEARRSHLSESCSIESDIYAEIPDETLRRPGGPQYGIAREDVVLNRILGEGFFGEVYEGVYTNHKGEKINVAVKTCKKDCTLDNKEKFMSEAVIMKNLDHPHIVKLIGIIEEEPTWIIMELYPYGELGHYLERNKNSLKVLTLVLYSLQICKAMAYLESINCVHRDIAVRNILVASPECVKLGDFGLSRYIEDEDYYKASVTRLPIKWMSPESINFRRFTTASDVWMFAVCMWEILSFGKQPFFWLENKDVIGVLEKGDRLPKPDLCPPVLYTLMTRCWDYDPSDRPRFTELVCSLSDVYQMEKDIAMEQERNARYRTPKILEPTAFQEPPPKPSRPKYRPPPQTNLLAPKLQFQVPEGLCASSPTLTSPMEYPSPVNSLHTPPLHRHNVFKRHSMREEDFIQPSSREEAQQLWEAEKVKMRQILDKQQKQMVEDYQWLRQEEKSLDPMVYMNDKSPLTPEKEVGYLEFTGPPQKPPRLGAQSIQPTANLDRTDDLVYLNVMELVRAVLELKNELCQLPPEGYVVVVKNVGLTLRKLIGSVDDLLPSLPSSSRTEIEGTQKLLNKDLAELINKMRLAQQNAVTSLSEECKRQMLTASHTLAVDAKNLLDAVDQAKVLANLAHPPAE

Legend:
[1] = target: FLAG-epitope tagged wild type Pyk2 (UniProt Q14289); assay: co-immunoprecipitation: anti-HA precipitates of co-transfected SF767 cells blotted with anti-FLAG
[2] = target: endogenous Pyk2 of SF767 cells (human) (UniProt Q14289); assay: co-immunoprecipitation with anti-Pyk2 antibodies from SF767-12A10 scFv cells
[3] = target: endogenous Pyk2 of SF767 cells (human) (UniProt Q14289); assay: co-immunoprecipitation: anti-Pyk2 precipitates of SF767-12A10 scFv cells reprobed with anti-HA

| Binder | binding [1] | binding [2] | binding [3] |
| --- | --- | --- | --- |
| 12A10 scFv 3x HA (scFv) scFv: MEVKLQESGPELKKPGETVKISCKASGYTFTDYSMHWVMQSPGKGLKWMGWINTETGEPRYVDDFKGRFAFSLETSASTAYLQIINLKNEDTATYFCARWDHGHGGFTYWGQGTLVTVSAGGGGSGGGGSGGGGSDIVLTQTTASLAVSLGQRATMSCRATESVDSYGKSFMYWFQQRAGQPPKLLIYLASNLESVVPPRFSGSGSRTDFSLTIDPVEADDAATYYCQQNNEDPFTFGSGTKLEIKLEGSYPYDVPDYAGYPYDVPDYAGSYPYDVPDYAAQCGR | binds |  |  |
| 12A10 scFv stably expressed in SF767 cells by lentiviral transduction (scFv, not shown: small tags and cut ends) scFv: MEVKLQESGPELKKPGETVKISCKASGYTFTDYSMHWVMQSPGKGLKWMGWINTETGEPRYVDDFKGRFAFSLETSASTAYLQIINLKNEDTATYFCARWDHGHGGFTYWGQGTLVTVSAGGGGSGGGGSGGGGSDIVLTQTTASLAVSLGQRATMSCRATESVDSYGKSFMYWFQQRAGQPPKLLIYLASNLESVVPPRFSGSGSRTDFSLTIDPVEADDAATYYCQQNNEDPFTFGSGTKLEIK |  | binds | binds |
